Results are given in words; binding and its absence hold for the method and conditions named. Binding seen in cells or lysates may run through a third protein. Some binding calls cover weakened binding; strength is not graded here. Sequences can lack the tags named with a protein.
Target: Myc-tagged M2 (influenza A virus matrix protein 2, A/Puerto Rico/8/34 H1N1) (influenza A virus A/Puerto Rico/8/34 H1N1 (PR8)) (UniProt P06821)
Assay: co-IP

Molecule | binding
Flag-tagged YWHAG H195S mutant (from UniProt P61981 1-247) | binds
Flag-tagged YWHAG (tyrosine 3-monooxygenase/tryptophan 5-monooxygenase activation protein gamma) (protein, UniProt P61981 1-247) MVDREQLVQKARLAEQAERYDDMAAAMKNVTELNEPLSNEERNLLSVAYKNVVGARRSSWRVISSIEQKTSADGNEKKIEMVRAYREKIEKELEAVCQDVLSLLDNYLIKNCSETQYESKVFYLKMKGDYYRYLAEVATGEKRATVVESSEKAYSEAHEISKEHMQPTHPIRLGLALNYSVFYYEIQNAPEQACHLAKTAFDDAIAELDTLNEDSYKDSTLIMQLLRDNLTLWTSDQQDDDGGEGNN | binds

Reference: article PMC9343881
